Patent publication US20250206813A1 (NVH MEDICINAL, published 2025)
These are yes or no findings as the source states them, for the method shown. Some binding calls cover weakened binding; strength is not graded here.

T1: CUB2 domain of PCPE-1 (human, UniProt Q15113 159-273)
T1 construct: domain: CUB2
T1 sequence (looked up): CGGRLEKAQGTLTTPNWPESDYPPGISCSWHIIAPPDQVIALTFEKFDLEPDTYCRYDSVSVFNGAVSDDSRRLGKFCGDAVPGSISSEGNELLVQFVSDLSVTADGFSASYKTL

T2: CUB1 domain of PCPE-1 (human, UniProt Q15113 37-149)
T2 construct: domain: CUB1
T2 sequence (looked up): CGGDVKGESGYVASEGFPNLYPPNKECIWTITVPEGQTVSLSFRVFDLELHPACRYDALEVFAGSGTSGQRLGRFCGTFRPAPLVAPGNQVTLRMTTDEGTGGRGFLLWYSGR

T3: PCPE-1 (Procollagen C-proteinase enhancer-1) glycoprotein, human (human) (UniProt Q15113)
T3 sequence (looked up): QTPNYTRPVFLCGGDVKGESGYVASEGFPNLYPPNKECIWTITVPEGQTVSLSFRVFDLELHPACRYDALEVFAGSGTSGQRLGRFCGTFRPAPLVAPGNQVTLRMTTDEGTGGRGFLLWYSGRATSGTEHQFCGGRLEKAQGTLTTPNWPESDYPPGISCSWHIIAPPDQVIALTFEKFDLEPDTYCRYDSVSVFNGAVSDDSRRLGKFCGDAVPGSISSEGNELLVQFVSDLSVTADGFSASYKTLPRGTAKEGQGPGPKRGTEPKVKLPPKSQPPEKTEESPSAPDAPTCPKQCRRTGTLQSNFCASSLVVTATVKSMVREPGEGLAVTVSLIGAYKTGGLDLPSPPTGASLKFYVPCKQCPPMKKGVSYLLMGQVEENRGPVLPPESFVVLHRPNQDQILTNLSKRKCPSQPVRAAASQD


Experiments:
[1] = biological target: T1, CUB2 domain of PCPE-1; test: SPR competition: VHH (50 nM) co-injected with CUB2 (250 nM) on immobilized PCPE-1
[2] = biological target: T1, CUB2 domain of PCPE-1; test: SPR competition: VHH (50 nM) co-injected with the soluble CUB2 domain (250 nM) over immobilized PCPE-1
[3] = biological target: T2, CUB1 domain of PCPE-1; test: SPR competition: VHH (50 nM) co-injected with the soluble CUB1 domain (250 nM) over immobilized PCPE-1
[4] = biological target: T2, CUB1 domain of PCPE-1; test: SPR competition: VHH (50 nM) co-injected with CUB1 (250 nM) on immobilized PCPE-1
[5] = biological target: T3, PCPE-1 (Procollagen C-proteinase enhancer-1) glycoprotein, human (human); test: SPR, VHH injected on immobilized PCPE-1
[6] = biological target: T3, PCPE-1 (Procollagen C-proteinase enhancer-1) glycoprotein, human (human); test: SPR (Biacore T200), 200 nM VHH injected over immobilized PCPE-1 (645 RU)

| Binder | binding [1] | binding [2] | binding [3] | binding [4] | also measured |
| --- | --- | --- | --- | --- | --- |
| VHH-I3 (VHH, Llama nanobody, pHEN6 vector, pelB signal, produced in E. coli periplasm; also called nanobody I3; 13; not shown: C-terminal 6-His tag) VHH: QVQLVESGGGLVEPGGSLRLSCAVSGSTFSMNVMGWYRQAPGKHREWVGSIGTGGGTNYPDSVKGRFTISRDNVKKTVYLQMNSLKPEDTAVYYCNKIPHNWGWGQGTQVTVSS | binds | binds |  |  |  |
| VHH-I5 (VHH, Llama nanobody, pHEN6 vector, pelB signal, produced in E. coli periplasm; also called nanobody-I5; 15; not shown: C-terminal 6-His tag) VHH: QVQLVESGGGLVQPGGFLRLLCTASGNIFSSNTMGWYRRAPGKQREWVASISKGGSTNYADSVKDRFTISRSITKNTVYLQMVNLKPEDTAVYYCNPVPDSDNYASGQGTQVTVSS | binds | binds |  |  |  |
| VHH-I7 (VHH, Llama nanobody, pHEN6 vector, pelB signal, produced in E. coli periplasm; also called nanobody I7; 17; not shown: C-terminal 6-His tag) VHH: QVQLVESGGGLVPPGGSLKLSCTASGSIFSSNVMGWYRRAPGKQREWVASISRGGGTNYPDSVKGRFTVSRDIAKNTVYLQISSLKPEDTAVYYCNPIPYSGDYVSGQGTQVTVSS | binds | binds |  |  |  |
| VHH-H4 (VHH, Synthetic nanobody (hsd2ab library), pET29b(+) vector, pelB signal; also called nanobody-H4; not shown: C-terminal 6-His tag) VHH: EVQLQASGGGFVQPGGSLRLSCAASGFTSEISNMGWFRQAPGKEREFVSAISGTHTTQTYYADSVKGRFTISRDNSKNTVYLQMNSLRAEDTATYYCAAEQDMSDLWLGSYWGQGTQVTVSS |  |  | binds | binds |  |
| VHH-H10 (VHH, Synthetic nanobody (hsd2ab library), pET29b(+) vector, pelB signal; not shown: C-terminal 6-His tag) VHH: EVQLQASGGGFVQPGGSLRLSCAASGYGWWIYEMGWFRQAPGKEREFVSAISWADGTRTYYADSVKGRFTISRDNSKNTVYLQMNSLRAEDTATYYCAIYILEGTQGVPIYWGQGTQVTVSS |  |  | binds | binds |  |
| VHH-I10 (VHH, not shown: small tags and cut ends) VHH: QVQLVESGGGLVQPGGSLTLSCVISGTIFNDGSSVNAMNWYREAPGKGRVLIASLDSAGITKYADSVNGRFTISADNARETVTLQMNNLAPEDTAVYYCAATKVWNSWYATYGIDYWGKGTQVTVSS |  |  |  |  | binding [5]: no binding (tested: 200 nM); binding [6]: no binding (tested: 200 nM) |
